Data as given in paper doi:10.1101/2025.09.18.676998.
These are yes or no findings as the source states them, for the method shown. Binding seen in cells or lysates may run through a third protein. Here binding means that the protein was enriched with, or labelled near, the bait; the list need not be complete.

Molecular target: Synaptotagmin-binding cytoplasmic RNA-interacting protein (Syncrip) (zebrafish (endogenous in eggs))
Experiment: affinity purification with mass spectrometry

B1: Igf2bp3 (protein, UniProt Q9PW80 1-582)
chain: MNKLYIGNVSEQASALDLESIFEQWKIPFSAPFLVKSGYAFVDCPDEKVAMRAIDTLSGKVELHGKVLEVEHSVPKRQRSCKLQIRNIPPHMQWEVLDGLLAQYGTVESCEQVNTDTETAVVNVRYGAKDQAREAMDKLNGFLMENYALKVSYIPDETAAADAPAVGGRRGFNPRGPPRQGSPSLGARPKLQSDVPLRLLVPTQFVGAIIGKEGATIRNITKQTHSKIDIHRKENAGAAEKPITVHSTPEGCSSACRNIMEIMQKEAIDTKITEEIPLKILAHNNFVGRLIGKEGRNLKKIEQDTDTKITISPLQDLTLYNPERTITVKGTLDACAKAEEEIMKKVRESYENDVAAMHLQSNLIPGLNLNALGLFPGAASGGISPSVVSGPPPGAQAGYQSFGAQMESETVHLFIPALAVGAIIGKQGQHIKQLSRFAGASIKIAPADGIDAKQRMVIISGPPEAQFKAQGRIFGKLKEENFFGPKEEVKLEAHIKVPSFAAGRVIGKGGKTVNELQNLTSAEVVVPRDQTPDENDQVVVKITGHFYASQLAQRKIQEIISQVRRQQQPKPSAAGPPVARRK
In the case of B1, the binding is reported as “binds”.
